Data on 3 molecules can be found in article PMC12597828.

Amino acid sequences for entries named in this document (tags omitted).
UniProt Q6KC79: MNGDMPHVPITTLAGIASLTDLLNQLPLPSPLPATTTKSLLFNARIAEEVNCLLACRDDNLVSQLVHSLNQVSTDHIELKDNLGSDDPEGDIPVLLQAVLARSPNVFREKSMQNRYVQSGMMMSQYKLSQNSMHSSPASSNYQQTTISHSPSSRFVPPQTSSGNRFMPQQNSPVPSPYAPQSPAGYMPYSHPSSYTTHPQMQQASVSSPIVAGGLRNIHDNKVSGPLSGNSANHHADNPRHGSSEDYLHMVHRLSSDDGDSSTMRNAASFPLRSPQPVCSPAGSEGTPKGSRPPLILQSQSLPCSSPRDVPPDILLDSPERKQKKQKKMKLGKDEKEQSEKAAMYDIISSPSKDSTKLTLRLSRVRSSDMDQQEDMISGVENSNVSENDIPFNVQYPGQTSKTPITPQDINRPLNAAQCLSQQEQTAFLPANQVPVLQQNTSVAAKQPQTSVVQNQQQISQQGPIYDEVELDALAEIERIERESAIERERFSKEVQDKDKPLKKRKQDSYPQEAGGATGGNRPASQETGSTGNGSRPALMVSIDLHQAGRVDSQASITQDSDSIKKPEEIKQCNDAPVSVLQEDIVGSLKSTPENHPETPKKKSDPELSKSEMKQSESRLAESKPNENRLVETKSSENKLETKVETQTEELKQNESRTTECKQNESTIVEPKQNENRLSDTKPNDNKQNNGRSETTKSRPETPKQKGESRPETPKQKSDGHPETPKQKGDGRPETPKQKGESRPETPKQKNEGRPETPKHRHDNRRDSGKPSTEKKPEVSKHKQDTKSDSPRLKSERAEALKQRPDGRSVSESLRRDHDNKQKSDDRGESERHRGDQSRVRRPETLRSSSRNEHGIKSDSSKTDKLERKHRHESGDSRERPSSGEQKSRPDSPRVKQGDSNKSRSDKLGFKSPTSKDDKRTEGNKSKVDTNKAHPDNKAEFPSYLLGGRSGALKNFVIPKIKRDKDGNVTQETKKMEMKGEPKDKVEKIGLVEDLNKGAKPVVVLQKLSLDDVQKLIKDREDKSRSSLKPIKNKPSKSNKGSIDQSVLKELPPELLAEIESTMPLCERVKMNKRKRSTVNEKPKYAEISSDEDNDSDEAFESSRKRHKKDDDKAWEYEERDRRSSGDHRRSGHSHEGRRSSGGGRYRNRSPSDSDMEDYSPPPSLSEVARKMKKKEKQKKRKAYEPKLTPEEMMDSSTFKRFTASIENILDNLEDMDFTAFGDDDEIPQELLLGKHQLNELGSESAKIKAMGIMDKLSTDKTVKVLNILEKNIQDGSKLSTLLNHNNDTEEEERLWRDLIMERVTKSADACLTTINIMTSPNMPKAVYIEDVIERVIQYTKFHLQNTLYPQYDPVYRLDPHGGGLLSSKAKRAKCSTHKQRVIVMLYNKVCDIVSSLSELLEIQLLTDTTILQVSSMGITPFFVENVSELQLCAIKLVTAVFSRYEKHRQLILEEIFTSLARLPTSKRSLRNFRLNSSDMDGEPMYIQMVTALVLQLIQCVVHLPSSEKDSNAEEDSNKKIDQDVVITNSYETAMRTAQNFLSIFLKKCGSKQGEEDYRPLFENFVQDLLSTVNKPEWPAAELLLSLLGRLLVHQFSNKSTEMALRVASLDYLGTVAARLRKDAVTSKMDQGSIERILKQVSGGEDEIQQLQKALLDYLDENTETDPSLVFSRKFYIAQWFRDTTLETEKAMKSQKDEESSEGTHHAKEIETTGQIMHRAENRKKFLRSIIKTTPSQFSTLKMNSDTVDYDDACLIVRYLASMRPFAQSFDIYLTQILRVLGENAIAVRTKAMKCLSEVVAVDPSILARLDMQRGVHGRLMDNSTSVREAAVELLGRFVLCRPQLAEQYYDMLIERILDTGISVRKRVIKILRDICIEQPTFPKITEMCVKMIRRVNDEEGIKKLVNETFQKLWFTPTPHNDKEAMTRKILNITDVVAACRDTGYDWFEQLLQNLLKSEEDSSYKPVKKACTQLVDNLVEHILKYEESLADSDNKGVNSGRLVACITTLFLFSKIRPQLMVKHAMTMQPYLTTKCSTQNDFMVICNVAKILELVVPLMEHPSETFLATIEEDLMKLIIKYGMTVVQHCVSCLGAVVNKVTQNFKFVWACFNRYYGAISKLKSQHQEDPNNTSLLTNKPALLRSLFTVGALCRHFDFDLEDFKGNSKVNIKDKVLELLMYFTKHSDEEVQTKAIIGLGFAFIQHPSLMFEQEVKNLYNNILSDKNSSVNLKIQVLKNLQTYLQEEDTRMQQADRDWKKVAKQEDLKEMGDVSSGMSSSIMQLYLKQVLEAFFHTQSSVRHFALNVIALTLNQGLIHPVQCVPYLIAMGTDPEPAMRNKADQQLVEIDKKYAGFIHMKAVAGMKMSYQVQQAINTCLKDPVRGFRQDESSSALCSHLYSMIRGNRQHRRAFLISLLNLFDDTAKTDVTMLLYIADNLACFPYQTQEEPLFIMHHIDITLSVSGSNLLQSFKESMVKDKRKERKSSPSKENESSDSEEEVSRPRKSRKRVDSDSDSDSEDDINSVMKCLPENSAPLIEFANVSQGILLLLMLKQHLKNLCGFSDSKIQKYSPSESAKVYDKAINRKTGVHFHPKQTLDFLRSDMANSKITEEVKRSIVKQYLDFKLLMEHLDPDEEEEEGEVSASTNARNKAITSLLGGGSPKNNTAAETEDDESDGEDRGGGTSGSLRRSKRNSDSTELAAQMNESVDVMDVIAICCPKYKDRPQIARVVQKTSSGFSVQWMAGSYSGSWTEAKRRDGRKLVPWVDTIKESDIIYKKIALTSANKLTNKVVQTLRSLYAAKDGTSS

First the molecules themselves.
T1: TetR–FLAG–MAU2 (UniProt Q9Y6X3)
T1 sequence: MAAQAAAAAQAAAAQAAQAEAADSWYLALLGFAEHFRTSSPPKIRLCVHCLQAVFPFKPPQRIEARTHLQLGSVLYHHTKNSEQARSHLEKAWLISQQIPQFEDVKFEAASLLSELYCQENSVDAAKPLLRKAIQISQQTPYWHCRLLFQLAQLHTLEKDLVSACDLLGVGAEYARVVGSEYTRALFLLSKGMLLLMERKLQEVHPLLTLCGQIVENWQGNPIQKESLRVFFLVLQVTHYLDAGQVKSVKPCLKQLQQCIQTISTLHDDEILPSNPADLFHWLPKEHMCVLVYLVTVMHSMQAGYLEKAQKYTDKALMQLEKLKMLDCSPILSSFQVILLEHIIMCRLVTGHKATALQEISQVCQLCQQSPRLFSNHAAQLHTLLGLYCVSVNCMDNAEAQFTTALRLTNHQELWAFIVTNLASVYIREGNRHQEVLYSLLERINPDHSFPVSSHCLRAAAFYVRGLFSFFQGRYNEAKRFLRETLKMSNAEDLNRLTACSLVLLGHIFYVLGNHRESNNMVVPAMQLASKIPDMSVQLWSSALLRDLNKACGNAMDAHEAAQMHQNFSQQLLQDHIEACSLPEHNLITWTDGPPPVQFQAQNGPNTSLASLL

B1: RAD21 (protein, UniProt O60216 1-631)
chain: MFYAHFVLSKRGPLAKIWLAAHWDKKLTKAHVFECNLESSVESIISPKVKMALRTSGHLLLGVVRIYHRKAKYLLADCNEAFIKIKMAFRPGVVDLPEENREAAYNAITLPEEFHDFDQPLPDLDDIDVAQQFSLNQSRVEEITMREEVGNISILQENDFGDFGMDDREIMREGSAFEDDDMLVSTTTSNLLLESEQSTSNLNEKINHLEYEDQYKDDNFGEGNDGGILDDKLISNNDGGIFDDPPALSEAGVMLPEQPAHDDMDEDDNVSMGGPDSPDSVDPVEPMPTMTDQTTLVPNEEEAFALEPIDITVKETKAKRKRKLIVDSVKELDSKTIRAQLSDYSDIVTTLDLAPPTKKLMMWKETGGVEKLFSLPAQPLWNNRLLKLFTRCLTPLVPEDLRKRRKGGEADNLDEFLKEFENPEVPREDQQQQHQQRDVIDEPIIEEPSRLQESVMEASRTNIDESAMPPPPPQGVKRKAGQIDPEPVMPPQQVEQMEIPPVELPPEEPPNICQLIPELELLPEKEKEKEKEKEDDEEEEDEDASGGDQDQEERRWNKRTQQMLHGLQRALAKTGAESISLLELCRNTNRKQAAAKFYSFLVLKKQQAIELTQEEPYSDIIATPGPRFHII
B2: STAG2 (protein, UniProt Q8N3U4 1-1231)
chain: MIAAPEIPTDFNLLQESETHFSSDTDFEDIEGKNQKQGKGKTCKKGKKGPAEKGKGGNGGGKPPSGPNRMNGHHQQNGVENMMLFEVVKMGKSAMQSVVDDWIESYKHDRDIALLDLINFFIQCSGCKGVVTAEMFRHMQNSEIIRKMTEEFDEDSGDYPLTMAGPQWKKFKSSFCEFIGVLVRQCQYSIIYDEYMMDTVISLLTGLSDSQVRAFRHTSTLAAMKLMTALVNVALNLSINMDNTQRQYEAERNKMIGKRANERLELLLQKRKELQENQDEIENMMNAIFKGVFVHRYRDAIAEIRAICIEEIGIWMKMYSDAFLNDSYLKYVGWTMHDKQGEVRLKCLTALQGLYYNKELNSKLELFTSRFKDRIVSMTLDKEYDVAVQAIKLLTLVLQSSEEVLTAEDCENVYHLVYSAHRPVAVAAGEFLYKKLFSRRDPEEDGMMKRRGRQGPNANLVKTLVFFFLESELHEHAAYLVDSMWDCATELLKDWECMNSLLLEEPLSGEEALTDRQESALIEIMLCTIRQAAECHPPVGRGTGKRVLTAKEKKTQLDDRTKITELFAVALPQLLAKYSVDAEKVTNLLQLPQYFDLEIYTTGRLEKHLDALLRQIRNIVEKHTDTDVLEACSKTYHALCNEEFTIFNRVDISRSQLIDELADKFNRLLEDFLQEGEEPDEDDAYQVLSTLKRITAFHNAHDLSKWDLFACNYKLLKTGIENGDMPEQIVIHALQCTHYVILWQLAKITESSSTKEDLLRLKKQMRVFCQICQHYLTNVNTTVKEQAFTILCDILMIFSHQIMSGGRDMLEPLVYTPDSSLQSELLSFILDHVFIEQDDDNNSADGQQEDEASKIEALHKRRNLLAAFCKLIVYTVVEMNTAADIFKQYMKYYNDYGDIIKETMSKTRQIDKIQCAKTLILSLQQLFNEMIQENGYNFDRSSSTFSGIKELARRFALTFGLDQLKTREAIAMLHKDGIEFAFKEPNPQGESHPPLNLAFLDILSEFSSKLLRQDKRTVYVYLEKFMTFQMSLRREDVWLPLMSYRNSLLAGGDDDTMSVISGISSRGSTVRSKKSKPSTGKRKVVEGMQLSLTEESSSSDSMWLSREQTLHTPVMMQTPQLTSTIMREPKRLRPEDSFMSVYPMQTEHHQTPLDYNRRGTSLMEDDEEPIVEDVMMSSEGRIEDLNEGMDFDTMDIDLPPSKNRRERTELKPDFFDPASIMDESVLGVSMF

Results are given in words; binding and its absence hold for the method and conditions named. Some binding calls cover weakened binding; strength is not graded here. Tags and fused reporters may be left off the sequences shown.

The assay concerns the target T1, TetR–FLAG–MAU2. Kind of assay: ChIP (qPCR and sequencing) of factors co-recruited to TetO arrays by a tethered TetR fusion; HAP1 cells with 27 genomic TetO platforms stably expressing TetR–FLAG–MAU2 or TetR–FLAG–mCherry; 1% formaldehyde cross-linking for 10 min; ChIP with an antibody to each factor (anti-V5 for V5–MAU2); TetO DNA read by qPCR or sequencing; enrichment relative to Cherry cells; recruitment was lost after 1 h doxycycline; NIPBL recruitment was also tested after 2 h RAD21 depletion.
With NIPBL (from UniProt Q6KC79 1-2804), the binding result is recorded as “binds”.
Regarding B1, the binding result is recorded as “binds”.
As for B2, the entry is “binds”.
